Test results taken from PMC7257154.
These are yes or no findings as the source states them, for the method shown. Binding seen in cells or lysates may run through a third protein. A result given as binding can be weak or reduced; the word gives no strength.

The chains behind the UniProt entries cited, without tags or fusion partners.
UniProt Q15796: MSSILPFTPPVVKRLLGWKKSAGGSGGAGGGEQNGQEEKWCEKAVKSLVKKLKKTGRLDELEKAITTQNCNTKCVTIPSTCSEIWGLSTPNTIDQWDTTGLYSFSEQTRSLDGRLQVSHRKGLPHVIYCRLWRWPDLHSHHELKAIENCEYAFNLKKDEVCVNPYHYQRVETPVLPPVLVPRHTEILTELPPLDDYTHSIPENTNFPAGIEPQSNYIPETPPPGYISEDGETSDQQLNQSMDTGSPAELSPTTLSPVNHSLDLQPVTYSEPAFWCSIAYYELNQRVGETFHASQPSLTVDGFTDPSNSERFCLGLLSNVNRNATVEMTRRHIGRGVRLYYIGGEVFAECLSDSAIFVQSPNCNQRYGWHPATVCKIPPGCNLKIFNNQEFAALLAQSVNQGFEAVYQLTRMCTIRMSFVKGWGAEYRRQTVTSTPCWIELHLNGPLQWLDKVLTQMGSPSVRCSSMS
UniProt Q13485: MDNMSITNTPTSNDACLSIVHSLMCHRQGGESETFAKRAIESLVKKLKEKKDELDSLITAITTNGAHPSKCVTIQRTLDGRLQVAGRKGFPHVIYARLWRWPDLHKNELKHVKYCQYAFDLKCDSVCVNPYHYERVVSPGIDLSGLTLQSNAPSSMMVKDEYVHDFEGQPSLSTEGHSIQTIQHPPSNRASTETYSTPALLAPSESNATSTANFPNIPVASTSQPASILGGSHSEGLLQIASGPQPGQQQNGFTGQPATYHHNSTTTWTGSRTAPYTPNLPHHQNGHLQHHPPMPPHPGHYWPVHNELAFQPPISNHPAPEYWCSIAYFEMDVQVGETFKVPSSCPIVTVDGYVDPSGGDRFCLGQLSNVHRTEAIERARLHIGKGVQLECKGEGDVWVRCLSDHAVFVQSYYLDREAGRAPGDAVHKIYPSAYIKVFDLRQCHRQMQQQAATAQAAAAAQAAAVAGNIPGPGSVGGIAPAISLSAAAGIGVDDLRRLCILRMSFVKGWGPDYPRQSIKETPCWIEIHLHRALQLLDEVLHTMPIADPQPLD

Assays:
Flag-Smad2 = Flag-Smad2 (UniProt Q15796); test: co-IP; lysate of late gastrula Xenopus laevis embryos co-injected with RNA of the Myc-tagged construct and of the Flag-tagged Smad; precipitated with anti-Flag and Dynabeads Protein G, blot with anti-Myc; lysis buffer 150 mM NaCl, 20 mM Tris pH 7.5, 1% Nonidet P-40, 1 mM EDTA; 4 °C overnight; normal rabbit IgG as control
[1] = target: Flag epitope-tagged human Smad4 (human) (UniProt Q13485); test: as above

Row | Substance | binding (Flag-Smad2) | binding [1]
1 | Myc-Tbx2ΔC (from UniProt B7ZQY8) (domain or fragment) | binds | 
2 | Myc-epitope-tagged Tbx2 (from UniProt B7ZQY8) | binds | binds
3 | Myc-Tbx2R-A (from UniProt B7ZQY8) | binds | 
